Measurements taken from US5698529A, “Chemotherapeutic compositions” (Supratek Pharma, Inc., priority 1996, dated 1997).
In brackets after ≈: the same amount, converted by molar mass.

System: SKVO3 cells
Experiment: cells
Type: cell-based
Conditions: Homo sapiens
Excerpt: The antineoplastic agent vinblastine is incorporated into the block copolymer mixture described in Example 3.
The antineoplastic agent mitomycin C is incorporated into the block copolymer mixture described in Example 3.
The antineoplastic agent methotrexate is incorporated into the block copolymer mixture described in Example 3.
The antineoplastic agent daunorubicin is incorporated into the block copolymer mixture described in Example 3.

`COc1cc2c(c(OC)c1OC)-c1ccc(OC)c(=O)cc1[C@@H](NC(C)=O)CC2` [free colchicine, colchicine] gave an IC50 of 0.95 µg/mL (≈ 2.38 µM).
